Results are given in words; binding and its absence hold for the method and conditions named.
Biological target: human LGP2 (laboratory of genetics and physiology 2), E. coli expressed (human) (UniProt Q96C10)
Assay: SEC; gel filtration on Superose 6 to assess the oligomeric state, elution compared with standard proteins; no RNA; both purified

binding: no binding
B1: human LGP2 (laboratory of genetics and physiology 2), E. coli expressed (protein, UniProt Q96C10 1-678)
chain: MELRSYQWEVIMPALEGKNIIIWLPTGAGKTRAAAYVAKRHLETVDGAKVVVLVNRVHLVTQHGEEFRRMLDGRWTVTTLSGDMGPRAGFGHLARCHDLLICTAELLQMALTSPEEEEHVELTVFSLIVVDECHHTHKDTVYNVIMSQYLELKLQRAQPLPQVLGLTASPGTGGASKLDGAINHVLQLCANLDTWCIMSPQNCCPQLQEHSQQPCKQYNLCHRRSQDPFGDLLKKLMDQIHDHLEMPELSRKFGTQMYEQQVVKLSEAAALAGLQEQRVYALHLRRYNDALLIHDTVRAVDALAALQDFYHREHVTKTQILCAERRLLALFDDRKNELAHLATHGPENPKLEMLEKILQRQFSSSNSPRGIIFTRTRQSAHSLLLWLQQQQGLQTVDIRAQLLIGAGNSSQSTHMTQRDQQEVIQKFQDGTLNLLVATSVAEEGLDIPHCNVVVRYGLLTNEISMVQARGRARADQSVYAFVATEGSRELKRELINEALETLMEQAVAAVQKMDQAEYQAKIRDLQQAALTKRAAQAAQRENQRQQFPVEHVQLLCINCMVAVGHGSDLRKVEGTHHVNVNPNFSNYYNVSRDPVVINKVFKDWKPGGVISCRNCGEVWGLQMIYKSVKLPVLKVRSMLLETPQGRIQAKKWSRVPFSVPDFDFLQHCAENLSDLSLD

— paper PMC10783506
